Results as given in article PMC11490714.

The chains behind the UniProt entries cited, without tags or fusion partners.
UniProt Q16531: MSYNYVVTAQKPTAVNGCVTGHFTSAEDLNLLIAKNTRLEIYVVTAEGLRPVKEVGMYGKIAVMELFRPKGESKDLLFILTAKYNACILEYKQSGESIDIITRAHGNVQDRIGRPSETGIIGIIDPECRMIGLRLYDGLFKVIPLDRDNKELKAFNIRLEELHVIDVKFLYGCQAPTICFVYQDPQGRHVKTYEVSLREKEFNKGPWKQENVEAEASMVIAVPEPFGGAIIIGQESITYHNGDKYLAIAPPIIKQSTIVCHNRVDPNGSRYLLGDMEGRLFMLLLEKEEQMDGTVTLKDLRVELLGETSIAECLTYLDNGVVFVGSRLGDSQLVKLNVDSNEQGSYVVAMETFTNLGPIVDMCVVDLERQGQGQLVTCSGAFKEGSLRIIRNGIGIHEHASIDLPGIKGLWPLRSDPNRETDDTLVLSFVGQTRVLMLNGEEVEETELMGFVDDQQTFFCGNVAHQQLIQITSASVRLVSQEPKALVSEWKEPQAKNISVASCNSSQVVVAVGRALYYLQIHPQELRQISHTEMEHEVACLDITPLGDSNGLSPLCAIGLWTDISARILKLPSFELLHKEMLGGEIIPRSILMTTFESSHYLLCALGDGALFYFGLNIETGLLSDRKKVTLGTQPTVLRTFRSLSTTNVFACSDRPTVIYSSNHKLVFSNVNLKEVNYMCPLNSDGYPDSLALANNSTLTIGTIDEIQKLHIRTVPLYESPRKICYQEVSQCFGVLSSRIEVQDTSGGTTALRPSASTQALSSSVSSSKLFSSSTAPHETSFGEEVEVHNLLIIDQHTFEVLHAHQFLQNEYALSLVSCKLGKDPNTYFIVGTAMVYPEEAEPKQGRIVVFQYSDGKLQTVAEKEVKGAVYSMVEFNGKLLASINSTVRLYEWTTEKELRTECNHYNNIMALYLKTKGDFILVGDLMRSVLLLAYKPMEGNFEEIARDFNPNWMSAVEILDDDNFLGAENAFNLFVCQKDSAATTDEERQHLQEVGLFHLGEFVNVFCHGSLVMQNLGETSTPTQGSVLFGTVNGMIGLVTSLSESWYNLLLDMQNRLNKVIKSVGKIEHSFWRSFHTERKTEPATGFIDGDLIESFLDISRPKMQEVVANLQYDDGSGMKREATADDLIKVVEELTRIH
UniProt Q14258: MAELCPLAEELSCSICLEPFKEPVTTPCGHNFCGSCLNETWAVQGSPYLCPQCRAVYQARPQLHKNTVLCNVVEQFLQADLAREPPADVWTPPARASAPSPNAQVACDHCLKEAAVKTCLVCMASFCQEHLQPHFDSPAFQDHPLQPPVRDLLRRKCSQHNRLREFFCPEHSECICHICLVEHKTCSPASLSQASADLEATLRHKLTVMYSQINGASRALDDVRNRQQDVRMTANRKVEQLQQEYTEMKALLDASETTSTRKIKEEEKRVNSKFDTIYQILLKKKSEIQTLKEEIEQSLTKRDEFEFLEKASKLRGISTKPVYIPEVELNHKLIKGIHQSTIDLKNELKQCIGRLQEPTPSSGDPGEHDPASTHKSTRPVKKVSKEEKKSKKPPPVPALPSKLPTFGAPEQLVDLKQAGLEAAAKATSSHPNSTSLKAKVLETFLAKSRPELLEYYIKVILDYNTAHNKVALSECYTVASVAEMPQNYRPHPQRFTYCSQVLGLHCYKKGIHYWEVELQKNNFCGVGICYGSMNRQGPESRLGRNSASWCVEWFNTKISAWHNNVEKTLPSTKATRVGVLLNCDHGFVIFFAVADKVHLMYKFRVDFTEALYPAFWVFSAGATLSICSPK
UniProt Q14145: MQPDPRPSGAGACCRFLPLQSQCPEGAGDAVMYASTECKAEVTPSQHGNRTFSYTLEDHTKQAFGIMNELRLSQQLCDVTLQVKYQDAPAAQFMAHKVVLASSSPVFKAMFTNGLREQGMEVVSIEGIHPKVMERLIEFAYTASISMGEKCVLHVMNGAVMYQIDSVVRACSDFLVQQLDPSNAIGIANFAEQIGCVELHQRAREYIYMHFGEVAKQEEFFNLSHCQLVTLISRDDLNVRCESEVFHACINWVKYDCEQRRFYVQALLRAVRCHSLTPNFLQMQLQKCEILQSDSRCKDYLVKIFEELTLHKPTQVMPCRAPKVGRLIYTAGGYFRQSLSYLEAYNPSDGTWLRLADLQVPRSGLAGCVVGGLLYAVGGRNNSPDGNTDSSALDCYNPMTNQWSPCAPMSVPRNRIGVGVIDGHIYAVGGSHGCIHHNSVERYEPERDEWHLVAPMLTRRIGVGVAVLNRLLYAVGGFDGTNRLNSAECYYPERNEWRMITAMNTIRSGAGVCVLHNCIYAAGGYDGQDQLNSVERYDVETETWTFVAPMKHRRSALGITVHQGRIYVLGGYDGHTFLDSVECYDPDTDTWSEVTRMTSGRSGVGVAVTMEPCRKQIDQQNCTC
UniProt Q9UPU5: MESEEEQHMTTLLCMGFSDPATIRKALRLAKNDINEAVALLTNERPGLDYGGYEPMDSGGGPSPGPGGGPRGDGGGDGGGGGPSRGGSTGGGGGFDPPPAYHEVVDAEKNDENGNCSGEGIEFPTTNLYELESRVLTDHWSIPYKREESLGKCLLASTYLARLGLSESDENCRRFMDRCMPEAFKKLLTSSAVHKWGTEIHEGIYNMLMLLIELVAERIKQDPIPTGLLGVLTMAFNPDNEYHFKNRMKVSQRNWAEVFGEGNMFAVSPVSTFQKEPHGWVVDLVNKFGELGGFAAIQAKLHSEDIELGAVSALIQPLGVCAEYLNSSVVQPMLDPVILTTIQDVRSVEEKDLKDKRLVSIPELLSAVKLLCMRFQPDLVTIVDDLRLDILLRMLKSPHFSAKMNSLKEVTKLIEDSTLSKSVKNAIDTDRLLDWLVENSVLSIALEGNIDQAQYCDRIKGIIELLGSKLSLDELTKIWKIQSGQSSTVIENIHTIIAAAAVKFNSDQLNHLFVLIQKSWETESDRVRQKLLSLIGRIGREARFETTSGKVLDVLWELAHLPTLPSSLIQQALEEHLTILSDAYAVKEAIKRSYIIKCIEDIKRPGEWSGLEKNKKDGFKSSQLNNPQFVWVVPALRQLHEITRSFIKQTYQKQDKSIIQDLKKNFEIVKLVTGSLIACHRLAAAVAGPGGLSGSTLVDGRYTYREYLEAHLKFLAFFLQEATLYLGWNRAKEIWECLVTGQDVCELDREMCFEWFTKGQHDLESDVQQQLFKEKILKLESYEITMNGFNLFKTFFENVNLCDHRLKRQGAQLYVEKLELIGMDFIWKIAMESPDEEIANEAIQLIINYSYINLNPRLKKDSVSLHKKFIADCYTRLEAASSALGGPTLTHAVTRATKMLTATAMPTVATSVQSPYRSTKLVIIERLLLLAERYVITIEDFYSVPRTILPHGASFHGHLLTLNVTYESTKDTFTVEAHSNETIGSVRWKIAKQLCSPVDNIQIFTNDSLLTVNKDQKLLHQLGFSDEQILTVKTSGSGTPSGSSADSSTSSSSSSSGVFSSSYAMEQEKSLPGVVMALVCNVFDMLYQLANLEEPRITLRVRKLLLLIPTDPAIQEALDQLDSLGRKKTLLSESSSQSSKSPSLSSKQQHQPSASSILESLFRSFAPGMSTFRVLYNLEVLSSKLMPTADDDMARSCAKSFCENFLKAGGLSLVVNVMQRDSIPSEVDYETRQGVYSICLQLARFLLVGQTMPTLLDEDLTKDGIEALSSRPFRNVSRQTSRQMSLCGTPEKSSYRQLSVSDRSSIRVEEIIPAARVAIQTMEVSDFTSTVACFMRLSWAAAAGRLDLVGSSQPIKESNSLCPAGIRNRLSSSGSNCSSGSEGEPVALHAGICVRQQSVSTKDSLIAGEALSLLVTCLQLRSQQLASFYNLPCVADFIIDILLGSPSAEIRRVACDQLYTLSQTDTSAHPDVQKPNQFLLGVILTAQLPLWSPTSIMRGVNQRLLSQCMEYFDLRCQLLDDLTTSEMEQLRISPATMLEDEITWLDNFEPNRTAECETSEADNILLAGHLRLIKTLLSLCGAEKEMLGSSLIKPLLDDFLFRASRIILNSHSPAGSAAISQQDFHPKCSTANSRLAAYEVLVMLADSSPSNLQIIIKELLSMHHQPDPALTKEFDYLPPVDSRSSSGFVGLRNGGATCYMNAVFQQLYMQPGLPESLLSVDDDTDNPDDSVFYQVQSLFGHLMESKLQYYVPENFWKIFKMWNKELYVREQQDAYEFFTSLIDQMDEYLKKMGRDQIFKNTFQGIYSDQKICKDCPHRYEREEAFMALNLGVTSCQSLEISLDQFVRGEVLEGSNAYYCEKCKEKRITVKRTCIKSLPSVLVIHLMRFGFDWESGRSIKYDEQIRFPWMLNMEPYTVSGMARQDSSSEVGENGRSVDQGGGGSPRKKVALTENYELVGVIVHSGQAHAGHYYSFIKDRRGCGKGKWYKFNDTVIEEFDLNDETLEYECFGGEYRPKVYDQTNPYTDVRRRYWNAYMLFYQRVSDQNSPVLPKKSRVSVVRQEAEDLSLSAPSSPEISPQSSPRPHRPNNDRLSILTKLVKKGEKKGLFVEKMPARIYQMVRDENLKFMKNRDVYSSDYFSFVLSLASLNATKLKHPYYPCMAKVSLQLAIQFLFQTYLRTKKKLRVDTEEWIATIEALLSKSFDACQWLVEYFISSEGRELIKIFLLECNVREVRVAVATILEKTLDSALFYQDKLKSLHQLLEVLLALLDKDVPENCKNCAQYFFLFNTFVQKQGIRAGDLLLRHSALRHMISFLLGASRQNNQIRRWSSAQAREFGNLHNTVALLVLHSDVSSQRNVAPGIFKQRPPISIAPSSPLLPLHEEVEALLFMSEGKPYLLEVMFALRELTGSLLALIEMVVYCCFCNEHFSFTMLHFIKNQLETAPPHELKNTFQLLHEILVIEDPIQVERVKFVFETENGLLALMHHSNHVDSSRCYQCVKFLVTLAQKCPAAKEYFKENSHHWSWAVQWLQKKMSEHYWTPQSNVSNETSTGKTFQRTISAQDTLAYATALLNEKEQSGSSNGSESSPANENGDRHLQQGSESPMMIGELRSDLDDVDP
UniProt Q8NB50: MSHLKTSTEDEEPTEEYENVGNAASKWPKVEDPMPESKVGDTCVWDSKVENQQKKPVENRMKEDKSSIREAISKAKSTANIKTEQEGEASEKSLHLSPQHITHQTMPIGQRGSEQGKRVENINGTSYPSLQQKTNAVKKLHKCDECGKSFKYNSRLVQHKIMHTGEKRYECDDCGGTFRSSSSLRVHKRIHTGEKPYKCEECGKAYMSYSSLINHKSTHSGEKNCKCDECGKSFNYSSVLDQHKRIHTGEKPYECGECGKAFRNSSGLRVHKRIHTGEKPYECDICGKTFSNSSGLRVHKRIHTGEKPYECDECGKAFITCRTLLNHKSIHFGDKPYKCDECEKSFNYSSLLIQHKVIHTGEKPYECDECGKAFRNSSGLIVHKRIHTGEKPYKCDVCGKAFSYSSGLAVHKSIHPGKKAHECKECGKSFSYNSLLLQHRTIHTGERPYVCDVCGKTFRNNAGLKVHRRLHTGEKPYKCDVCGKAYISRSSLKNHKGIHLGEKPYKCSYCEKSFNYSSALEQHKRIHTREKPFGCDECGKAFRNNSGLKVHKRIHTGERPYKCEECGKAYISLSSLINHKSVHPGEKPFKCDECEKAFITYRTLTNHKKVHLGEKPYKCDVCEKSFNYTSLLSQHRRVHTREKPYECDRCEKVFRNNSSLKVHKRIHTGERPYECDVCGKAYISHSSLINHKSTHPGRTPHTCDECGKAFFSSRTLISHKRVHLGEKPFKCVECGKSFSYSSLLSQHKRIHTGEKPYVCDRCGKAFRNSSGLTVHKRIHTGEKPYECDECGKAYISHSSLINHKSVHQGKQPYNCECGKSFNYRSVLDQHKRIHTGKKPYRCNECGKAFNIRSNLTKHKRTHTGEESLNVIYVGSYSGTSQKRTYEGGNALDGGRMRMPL
UniProt Q03936: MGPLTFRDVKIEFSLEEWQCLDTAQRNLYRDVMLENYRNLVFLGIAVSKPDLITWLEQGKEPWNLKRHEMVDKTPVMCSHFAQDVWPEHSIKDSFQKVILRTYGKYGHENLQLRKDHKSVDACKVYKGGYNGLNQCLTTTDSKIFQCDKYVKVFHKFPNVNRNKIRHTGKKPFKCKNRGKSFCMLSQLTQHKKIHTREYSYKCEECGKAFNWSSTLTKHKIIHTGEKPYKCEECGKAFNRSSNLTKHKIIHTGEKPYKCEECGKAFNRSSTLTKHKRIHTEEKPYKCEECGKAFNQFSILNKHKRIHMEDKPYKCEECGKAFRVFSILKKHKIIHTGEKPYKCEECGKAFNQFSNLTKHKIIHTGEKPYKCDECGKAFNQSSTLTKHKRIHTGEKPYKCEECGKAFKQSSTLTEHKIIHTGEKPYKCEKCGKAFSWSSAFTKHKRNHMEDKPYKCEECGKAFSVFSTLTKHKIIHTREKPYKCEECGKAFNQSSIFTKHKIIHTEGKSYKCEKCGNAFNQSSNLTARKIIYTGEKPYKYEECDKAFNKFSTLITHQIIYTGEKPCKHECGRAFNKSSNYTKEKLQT

T1: FLAG-RBM39 (human) (UniProt Q14498)
T1 sequence: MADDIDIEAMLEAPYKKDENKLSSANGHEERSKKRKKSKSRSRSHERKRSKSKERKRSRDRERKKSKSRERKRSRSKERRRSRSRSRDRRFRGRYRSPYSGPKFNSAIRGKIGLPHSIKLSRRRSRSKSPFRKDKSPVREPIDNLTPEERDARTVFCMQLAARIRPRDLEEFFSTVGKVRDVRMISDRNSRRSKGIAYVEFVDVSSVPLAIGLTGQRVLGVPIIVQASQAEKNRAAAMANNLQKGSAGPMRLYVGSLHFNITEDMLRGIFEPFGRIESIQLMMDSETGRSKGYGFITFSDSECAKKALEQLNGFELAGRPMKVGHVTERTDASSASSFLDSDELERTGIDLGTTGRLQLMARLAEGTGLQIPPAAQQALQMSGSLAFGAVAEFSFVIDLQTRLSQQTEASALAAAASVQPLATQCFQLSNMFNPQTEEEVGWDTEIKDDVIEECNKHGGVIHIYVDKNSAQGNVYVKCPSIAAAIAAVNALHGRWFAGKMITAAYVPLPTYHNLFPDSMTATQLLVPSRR

B1: endogenous USP39 (enzyme, UniProt Q53GS9 1-565)
chain: MSGRSKRESRGSTRGKRESESRGSSGRVKRERDREREPEAASSRGSPVRVKREFEPASAREAPASVVPFVRVKREREVDEDSEPEREVRAKNGRVDSEDRRSRHCPYLDTINRSVLDFDFEKLCSISLSHINAYACLVCGKYFQGRGLKSHAYIHSVQFSHHVFLNLHTLKFYCLPDNYEIIDSSLEDITYVLKPTFTKQQIANLDKQAKLSRAYDGTTYLPGIVGLNNIKANDYANAVLQALSNVPPLRNYFLEEDNYKNIKRPPGDIMFLLVQRFGELMRKLWNPRNFKAHVSPHEMLQAVVLCSKKTFQITKQGDGVDFLSWFLNALHSALGGTKKKKKTIVTDVFQGSMRIFTKKLPHPDLPAEEKEQLLHNDEYQETMVESTFMYLTLDLPTAPLYKDEKEQLIIPQVPLFNILAKFNGITEKEYKTYKENFLKRFQLTKLPPYLIFCIKRFTKNNFFVEKNPTIVNFPITNVDLREYLSEEVQAVHKNTTYDLIANIVHDGKPSEGSYRIHVLHHGTGKWYELQDLQVTDILPQMITLSEAYIQIWKRRDNDETNQQGA
B2: USP36 (enzyme, UniProt Q9P275 1-1123)
chain: MPIVDKLKEALKPGRKDSADDGELGKLLASSAKKVLLQKIEFEPASKSFSYQLEALKSKYVLLNPKTEGASRHKSGDDPPARRQGSEHTYESCGDGVPAPQKVLFPTERLSLRWERVFRVGAGLHNLGNTCFLNATIQCLTYTPPLANYLLSKEHARSCHQGSFCMLCVMQNHIVQAFANSGNAIKPVSFIRDLKKIARHFRFGNQEDAHEFLRYTIDAMQKACLNGCAKLDRQTQATTLVHQIFGGYLRSRVKCSVCKSVSDTYDPYLDVALEIRQAANIVRALELFVKADVLSGENAYMCAKCKKKVPASKRFTIHRTSNVLTLSLKRFANFSGGKITKDVGYPEFLNIRPYMSQNNGDPVMYGLYAVLVHSGYSCHAGHYYCYVKASNGQWYQMNDSLVHSSNVKVVLNQQAYVLFYLRIPGSKKSPEGLISRTGSSSLPGRPSVIPDHSKKNIGNGIISSPLTGKRQDSGTMKKPHTTEEIGVPISRNGSTLGLKSQNGCIPPKLPSGSPSPKLSQTPTHMPTILDDPGKKVKKPAPPQHFSPRTAQGLPGTSNSNSSRSGSQRQGSWDSRDVVLSTSPKLLATATANGHGLKGNDESAGLDRRGSSSSSPEHSASSDSTKAPQTPRSGAAHLCDSQETNCSTAGHSKTPPSGADSKTVKLKSPVLSNTTTEPASTMSPPPAKKLALSAKKASTLWRATGNDLRPPPPSPSSDLTHPMKTSHPVVASTWPVHRARAVSPAPQSSSRLQPPFSPHPTLLSSTPKPPGTSEPRSCSSISTALPQVNEDLVSLPHQLPEASEPPQSPSEKRKKTFVGEPQRLGSETRLPQHIREATAAPHGKRKRKKKKRPEDTAASALQEGQTQRQPGSPMYRREGQAQLPAVRRQEDGTQPQVNGQQVGCVTDGHHASSRKRRRKGAEGLGEEGGLHQDPLRHSCSPMGDGDPEAMEESPRKKKKKKRKQETQRAVEEDGHLKCPRSAKPQDAVVPESSSCAPSANGWCPGDRMGLSQAPPVSWNGERESDVVQELLKYSSDKAYGRKVLTWDGKMSAVSQDAIEDSRQARTETVVDDWDEEFDRGKEKKIKKFKREKRRNFNAFQKLQTRRNFWSVTHPAKAASLSYRR
B3: USP42 (enzyme, UniProt Q9H9J4 1-1324)
chain: MTIVDKASESSDPSAYQNQPGSSEAVSPGDMDAGSASWGAVSSLNDVSNHTLSLGPVPGAVVYSSSSVPDKSKPSPQKDQALGDGIAPPQKVLFPSEKICLKWQQTHRVGAGLQNLGNTCFANAALQCLTYTPPLANYMLSHEHSKTCHAEGFCMMCTMQAHITQALSNPGDVIKPMFVINEMRRIARHFRFGNQEDAHEFLQYTVDAMQKACLNGSNKLDRHTQATTLVCQIFGGYLRSRVKCLNCKGVSDTFDPYLDITLEIKAAQSVNKALEQFVKPEQLDGENSYKCSKCKKMVPASKRFTIHRSSNVLTLSLKRFANFTGGKIAKDVKYPEYLDIRPYMSQPNGEPIVYVLYAVLVHTGFNCHAGHYFCYIKASNGLWYQMNDSIVSTSDIRSVLSQQAYVLFYIRSHDVKNGGELTHPTHSPGQSSPRPVISQRVVTNKQAAPGFIGPQLPSHMIKNPPHLNGTGPLKDTPSSSMSSPNGNSSVNRASPVNASASVQNWSVNRSSVIPEHPKKQKITISIHNKLPVRQCQSQPNLHSNSLENPTKPVPSSTITNSAVQSTSNASTMSVSSKVTKPIPRSESCSQPVMNGKSKLNSSVLVPYGAESSEDSDEESKGLGKENGIGTIVSSHSPGQDAEDEEATPHELQEPMTLNGANSADSDSDPKENGLAPDGASCQGQPALHSENPFAKANGLPGKLMPAPLLSLPEDKILETFRLSNKLKGSTDEMSAPGAERGPPEDRDAEPQPGSPAAESLEEPDAAAGLSSTKKAPPPRDPGTPATKEGAWEAMAVAPEEPPPSAGEDIVGDTAPPDLCDPGSLTGDASPLSQDAKGMIAEGPRDSALAEAPEGLSPAPPARSEEPCEQPLLVHPSGDHARDAQDPSQSLGAPEAAERPPAPVLDMAPAGHPEGDAEPSPGERVEDAAAPKAPGPSPAKEKIGSLRKVDRGHYRSRRERSSSGEPARESRSKTEGHRHRRRRTCPRERDRQDRHAPEHHPGHGDRLSPGERRSLGRCSHHHSRHRSGVELDWVRHHYTEGERGWGREKFYPDRPRWDRCRYYHDRYALYAARDWKPFHGGREHERAGLHERPHKDHNRGRRGCEPARERERHRPSSPRAGAPHALAPHPDRFSHDRTALVAGDNCNLSDRFHEHENGKSRKRRHDSVENSDSHVEKKARRSEQKDPLEEPKAKKHKKSKKKKKSKDKHRDRDSRHQQDSDLSAACSDADLHRHKKKKKKKKRHSRKSEDFVKDSELHLPRVTSLETVAQFRRAQGGFPLSGGPPLEGVGPFREKTKHLRMESRDDRCRLFEYGQGKRRYLELGR
B4: MID1 (enzyme, UniProt O15344 1-667)
chain: METLESELTCPICLELFEDPLLLPCAHSLCFNCAHRILVSHCATNESVESITAFQCPTCRHVITLSQRGLDGLKRNVTLQNIIDRFQKASVSGPNSPSETRRERAFDANTMTSAEKVLCQFCDQDPAQDAVKTCVTCEVSYCDECLKATHPNKKPFTGHRLIEPIPDSHIRGLMCLEHEDEKVNMYCVTDDQLICALCKLVGRHRDHQVAALSERYDKLKQNLESNLTNLIKRNTELETLLAKLIQTCQHVEVNASRQEAKLTEECDLLIEIIQQRRQIIGTKIKEGKVMRLRKLAQQIANCKQCIERSASLISQAEHSLKENDHARFLQTAKNITERVSMATASSQVLIPEINLNDTFDTFALDFSREKKLLECLDYLTAPNPPTIREELCTASYDTITVHWTSDDEFSVVSYELQYTIFTGQANVVSLCNSADSWMIVPNIKQNHYTVHGLQSGTKYIFMVKAINQAGSRSSEPGKLKTNSQPFKLDPKSAHRKLKVSHDNLTVERDESSSKKSHTPERFTSQGSYGVAGNVFIDSGRHYWEVVISGSTWYAIGLAYKSAPKHEWIGKNSASWALCRCNNNWVVRHNSKEIPIEPAPHLRRVGILLDYDNGSIAFYDALNSIHLYTFDVAFAQPVCPTFTVWNKCLTIITGLPIPDHLDCTEQLP
B5: UHRF1 (enzyme, UniProt Q96T88 1-793)
chain: MWIQVRTMDGRQTHTVDSLSRLTKVEELRRKIQELFHVEPGLQRLFYRGKQMEDGHTLFDYEVRLNDTIQLLVRQSLVLPHSTKERDSELSDTDSGCCLGQSESDKSSTHGEAAAETDSRPADEDMWDETELGLYKVNEYVDARDTNMGAWFEAQVVRVTRKAPSRDEPCSSTSRPALEEDVIYHVKYDDYPENGVVQMNSRDVRARARTIIKWQDLEVGQVVMLNYNPDNPKERGFWYDAEISRKRETRTARELYANVVLGDDSLNDCRIIFVDEVFKIERPGEGSPMVDNPMRRKSGPSCKHCKDDVNRLCRVCACHLCGGRQDPDKQLMCDECDMAFHIYCLDPPLSSVPSEDEWYCPECRNDASEVVLAGERLRESKKKAKMASATSSSQRDWGKGMACVGRTKECTIVPSNHYGPIPGIPVGTMWRFRVQVSESGVHRPHVAGIHGRSNDGAYSLVLAGGYEDDVDHGNFFTYTGSGGRDLSGNKRTAEQSCDQKLTNTNRALALNCFAPINDQEGAEAKDWRSGKPVRVVRNVKGGKNSKYAPAEGNRYDGIYKVVKYWPEKGKSGFLVWRYLLRRDDDEPGPWTKEGKDRIKKLGLTMQYPEGYLEALANREREKENSKREEEEQQEGGFASPRTGKGKWKRKSAGGGPSRAGSPRRTSKKTKVEPYSLTAQQSSLIREDKSNAKLWNEVLASLKDRPASGSPFQLFLSKVEETFQCICCQELVFRPITTVCQHNVCKDCLDRSFRAQVFSCPACRYDLGRSYAMQVNQPLQTVLNQLFPGYGNGR

These molecules were tested against T1, FLAG-RBM39 (human) (assay: affinity purification with mass spectrometry; HEK293T transfected with pcDNA3.1 or FLAG-RBM39 for 48 h, lysed in modified radioimmunoprecipitation assay buffer; anti-FLAG affinity gel; SDS-PAGE, in-gel trypsin digest, label-free quantification, three biological replicates).

binding, binds:
AURKB (from UniProt Q96GD4 1-344) (enzyme), BAP1 (from UniProt Q92560 1-729) (enzyme), BRD7 (from UniProt Q9NPI1 1-651), DNA damage-binding protein 1 (DDB1) (from UniProt Q16531 1-1140), E3 ubiquitin/ISG15 ligase TRIM25 (from UniProt Q14258 1-630) (enzyme), HUWE1 (from UniProt Q7Z6Z7 1-4374) (enzyme), JUN (from UniProt P05412 1-331), KEAP1 (from UniProt Q14145 1-624), KMT2A (from UniProt Q03164 1-3969) (enzyme), MARK2 (from UniProt Q7KZI7 1-788) (enzyme), TBK1 (from UniProt Q9UHD2 1-729) (enzyme), USP7 (from UniProt Q93009 1-1102) (enzyme), USP9X (from UniProt Q93008 1-2554) (enzyme), USP24 (from UniProt Q9UPU5 1-2620) (enzyme), ZFP62 (from UniProt Q8NB50 1-900), ZNF92 (from UniProt Q03936 1-586), cullin 4A (from UniProt Q13619 1-759), cullin 4B (from UniProt Q13620 1-913), splicing factor 3B subunit 1 (SF3B1) (from UniProt O75533 1-1304), B1, B2, B3, B4, B5

No constants are given. Whether binding was seen depends on the method and setting. In cells and extracts the contact can be indirect. Here binding means that the protein was enriched with, or labelled near, the bait; the list need not be complete. Tags and fused reporters may be left off the sequences shown.
